Assay results as given in the supplement of paper PMC12819154, “High-throughput peptide-centric local stability assay extends protein–ligand identification to membrane proteins, tissues and bacteria” (Nature Structural & Molecular Biology, 2025).
Some of the results follow. Small differences around the control level are noise.

Chains of the proteins cited; added tags and fusions are not shown. Lines headed by an entry give the natural chain unless they say otherwise; changes in a name come on top.
UniProt Q9CQS5: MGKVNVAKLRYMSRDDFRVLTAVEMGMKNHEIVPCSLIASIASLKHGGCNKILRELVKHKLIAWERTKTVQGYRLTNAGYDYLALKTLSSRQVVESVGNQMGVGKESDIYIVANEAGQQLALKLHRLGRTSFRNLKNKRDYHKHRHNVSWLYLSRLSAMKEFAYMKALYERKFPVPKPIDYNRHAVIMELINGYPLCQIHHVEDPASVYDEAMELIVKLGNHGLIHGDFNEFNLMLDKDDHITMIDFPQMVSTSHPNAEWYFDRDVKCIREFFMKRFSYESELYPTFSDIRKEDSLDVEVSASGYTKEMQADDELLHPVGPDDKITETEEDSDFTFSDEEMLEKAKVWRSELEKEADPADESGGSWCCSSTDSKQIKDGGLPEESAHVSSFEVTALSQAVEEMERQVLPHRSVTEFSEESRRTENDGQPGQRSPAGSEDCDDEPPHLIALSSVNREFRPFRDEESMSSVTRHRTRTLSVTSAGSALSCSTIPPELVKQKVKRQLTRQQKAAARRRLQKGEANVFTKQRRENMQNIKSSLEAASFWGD
UniProt Q99N32: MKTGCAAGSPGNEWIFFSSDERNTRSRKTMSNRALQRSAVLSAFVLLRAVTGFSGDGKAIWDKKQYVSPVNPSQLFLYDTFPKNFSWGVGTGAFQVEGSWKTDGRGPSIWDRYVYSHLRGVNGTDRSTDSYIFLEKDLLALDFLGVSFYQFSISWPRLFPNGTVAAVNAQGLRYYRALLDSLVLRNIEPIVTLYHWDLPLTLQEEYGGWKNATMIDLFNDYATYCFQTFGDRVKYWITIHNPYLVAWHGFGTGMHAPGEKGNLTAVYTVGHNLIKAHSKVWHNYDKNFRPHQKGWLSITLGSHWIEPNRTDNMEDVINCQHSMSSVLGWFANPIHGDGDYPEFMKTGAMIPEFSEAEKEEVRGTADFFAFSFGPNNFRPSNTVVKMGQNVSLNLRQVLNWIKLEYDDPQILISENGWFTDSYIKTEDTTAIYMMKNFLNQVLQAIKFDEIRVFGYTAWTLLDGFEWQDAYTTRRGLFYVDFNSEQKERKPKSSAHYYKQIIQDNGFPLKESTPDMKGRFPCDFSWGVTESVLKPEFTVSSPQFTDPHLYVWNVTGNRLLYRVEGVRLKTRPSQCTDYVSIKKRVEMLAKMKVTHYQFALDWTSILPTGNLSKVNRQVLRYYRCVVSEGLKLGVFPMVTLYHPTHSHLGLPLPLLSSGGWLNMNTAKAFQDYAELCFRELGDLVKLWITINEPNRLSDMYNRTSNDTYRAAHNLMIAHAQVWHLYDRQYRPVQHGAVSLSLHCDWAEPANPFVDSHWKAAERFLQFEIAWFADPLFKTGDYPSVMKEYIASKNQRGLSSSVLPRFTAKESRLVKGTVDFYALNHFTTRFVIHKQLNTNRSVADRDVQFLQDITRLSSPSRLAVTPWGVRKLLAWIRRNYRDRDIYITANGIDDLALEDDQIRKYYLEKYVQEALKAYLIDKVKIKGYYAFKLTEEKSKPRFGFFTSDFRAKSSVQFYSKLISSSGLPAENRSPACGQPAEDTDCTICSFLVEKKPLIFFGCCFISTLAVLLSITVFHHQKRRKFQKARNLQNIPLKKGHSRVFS
UniProt Q9BCZ4, whole entry: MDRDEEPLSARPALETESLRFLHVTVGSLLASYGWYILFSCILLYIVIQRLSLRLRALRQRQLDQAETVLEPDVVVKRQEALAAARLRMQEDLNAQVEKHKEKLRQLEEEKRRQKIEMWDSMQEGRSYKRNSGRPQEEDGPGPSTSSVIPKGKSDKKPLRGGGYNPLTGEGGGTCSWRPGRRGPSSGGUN
UniProt Q9CR10: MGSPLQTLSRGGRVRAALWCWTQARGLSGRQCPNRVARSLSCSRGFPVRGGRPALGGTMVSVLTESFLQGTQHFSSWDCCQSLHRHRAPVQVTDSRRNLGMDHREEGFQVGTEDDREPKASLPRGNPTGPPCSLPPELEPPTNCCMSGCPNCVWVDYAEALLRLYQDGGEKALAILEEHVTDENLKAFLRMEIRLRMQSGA
UniProt Q9CQJ8: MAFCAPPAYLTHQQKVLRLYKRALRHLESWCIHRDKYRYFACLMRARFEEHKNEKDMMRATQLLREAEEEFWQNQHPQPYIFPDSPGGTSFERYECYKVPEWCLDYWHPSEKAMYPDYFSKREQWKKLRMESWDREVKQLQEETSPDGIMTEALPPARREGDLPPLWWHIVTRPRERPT
UniProt Q9CQC9: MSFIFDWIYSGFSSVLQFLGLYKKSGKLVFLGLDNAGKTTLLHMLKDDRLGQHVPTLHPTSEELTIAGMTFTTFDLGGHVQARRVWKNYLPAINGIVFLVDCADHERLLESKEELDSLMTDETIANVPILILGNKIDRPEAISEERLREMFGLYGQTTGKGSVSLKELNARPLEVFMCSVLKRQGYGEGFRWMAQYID
UniProt Q99P65: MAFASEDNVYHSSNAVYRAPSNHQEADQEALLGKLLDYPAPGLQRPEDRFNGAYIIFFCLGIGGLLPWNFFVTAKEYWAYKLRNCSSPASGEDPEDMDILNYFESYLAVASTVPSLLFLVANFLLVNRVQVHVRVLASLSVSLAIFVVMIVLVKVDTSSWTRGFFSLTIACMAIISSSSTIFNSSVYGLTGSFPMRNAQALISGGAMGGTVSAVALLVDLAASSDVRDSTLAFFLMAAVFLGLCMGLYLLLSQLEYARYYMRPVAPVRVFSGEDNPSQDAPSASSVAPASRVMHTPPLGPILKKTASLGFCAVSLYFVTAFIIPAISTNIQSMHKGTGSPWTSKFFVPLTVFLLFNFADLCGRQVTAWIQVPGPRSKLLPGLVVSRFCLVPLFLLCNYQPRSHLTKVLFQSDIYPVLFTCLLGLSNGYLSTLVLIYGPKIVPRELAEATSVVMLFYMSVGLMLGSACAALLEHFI
UniProt Q99LT0, whole entry: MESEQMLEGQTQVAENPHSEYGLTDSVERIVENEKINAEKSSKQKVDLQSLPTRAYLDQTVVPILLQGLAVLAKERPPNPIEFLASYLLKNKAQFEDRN
UniProt Q99NF3: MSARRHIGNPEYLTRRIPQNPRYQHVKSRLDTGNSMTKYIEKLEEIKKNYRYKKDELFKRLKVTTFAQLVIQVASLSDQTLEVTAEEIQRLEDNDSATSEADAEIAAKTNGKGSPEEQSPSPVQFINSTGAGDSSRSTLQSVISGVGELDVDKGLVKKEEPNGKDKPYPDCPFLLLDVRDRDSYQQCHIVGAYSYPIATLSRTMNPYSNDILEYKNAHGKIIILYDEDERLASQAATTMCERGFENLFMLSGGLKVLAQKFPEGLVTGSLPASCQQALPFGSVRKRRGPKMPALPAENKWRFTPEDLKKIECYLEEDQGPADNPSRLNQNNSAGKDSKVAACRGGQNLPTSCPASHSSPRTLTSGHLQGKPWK
UniProt Q9CQ43: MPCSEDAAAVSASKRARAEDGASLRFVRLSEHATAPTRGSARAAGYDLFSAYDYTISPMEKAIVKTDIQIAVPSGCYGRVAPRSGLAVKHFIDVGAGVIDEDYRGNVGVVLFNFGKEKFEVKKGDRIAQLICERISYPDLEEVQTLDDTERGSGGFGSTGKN
UniProt Q99P31: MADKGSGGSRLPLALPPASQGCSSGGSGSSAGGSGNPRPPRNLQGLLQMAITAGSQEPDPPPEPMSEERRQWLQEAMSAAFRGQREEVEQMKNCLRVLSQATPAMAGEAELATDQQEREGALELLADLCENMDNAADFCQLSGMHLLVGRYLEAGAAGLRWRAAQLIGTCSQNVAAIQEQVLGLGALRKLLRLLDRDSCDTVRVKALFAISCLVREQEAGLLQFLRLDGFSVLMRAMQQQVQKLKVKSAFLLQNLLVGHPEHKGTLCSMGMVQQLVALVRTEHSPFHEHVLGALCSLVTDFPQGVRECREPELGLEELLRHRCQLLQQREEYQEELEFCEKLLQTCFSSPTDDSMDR
UniProt Q9CQM9: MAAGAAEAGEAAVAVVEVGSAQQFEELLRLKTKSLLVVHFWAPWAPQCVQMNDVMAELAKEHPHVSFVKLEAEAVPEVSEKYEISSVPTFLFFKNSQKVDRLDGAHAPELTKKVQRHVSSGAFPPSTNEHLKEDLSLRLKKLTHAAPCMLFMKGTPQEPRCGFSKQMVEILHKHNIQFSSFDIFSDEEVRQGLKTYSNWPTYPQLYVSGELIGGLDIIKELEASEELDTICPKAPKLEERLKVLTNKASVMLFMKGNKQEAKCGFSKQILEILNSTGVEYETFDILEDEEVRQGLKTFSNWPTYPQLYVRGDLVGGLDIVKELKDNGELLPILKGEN
UniProt Q9CQX2: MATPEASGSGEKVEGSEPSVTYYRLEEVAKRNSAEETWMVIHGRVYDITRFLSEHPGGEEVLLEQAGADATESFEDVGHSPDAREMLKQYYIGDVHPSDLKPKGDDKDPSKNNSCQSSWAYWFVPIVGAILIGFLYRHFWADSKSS
UniProt Q9CR16, whole entry: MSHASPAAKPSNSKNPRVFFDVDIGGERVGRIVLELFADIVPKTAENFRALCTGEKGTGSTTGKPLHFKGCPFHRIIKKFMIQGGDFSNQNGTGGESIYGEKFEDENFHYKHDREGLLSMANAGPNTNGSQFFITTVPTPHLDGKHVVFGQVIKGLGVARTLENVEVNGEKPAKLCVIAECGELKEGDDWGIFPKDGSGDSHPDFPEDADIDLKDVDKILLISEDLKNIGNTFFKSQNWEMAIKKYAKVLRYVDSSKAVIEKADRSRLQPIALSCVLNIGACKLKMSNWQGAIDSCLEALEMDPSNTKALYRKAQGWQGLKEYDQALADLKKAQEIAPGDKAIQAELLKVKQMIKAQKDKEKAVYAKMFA
UniProt Q99MZ3: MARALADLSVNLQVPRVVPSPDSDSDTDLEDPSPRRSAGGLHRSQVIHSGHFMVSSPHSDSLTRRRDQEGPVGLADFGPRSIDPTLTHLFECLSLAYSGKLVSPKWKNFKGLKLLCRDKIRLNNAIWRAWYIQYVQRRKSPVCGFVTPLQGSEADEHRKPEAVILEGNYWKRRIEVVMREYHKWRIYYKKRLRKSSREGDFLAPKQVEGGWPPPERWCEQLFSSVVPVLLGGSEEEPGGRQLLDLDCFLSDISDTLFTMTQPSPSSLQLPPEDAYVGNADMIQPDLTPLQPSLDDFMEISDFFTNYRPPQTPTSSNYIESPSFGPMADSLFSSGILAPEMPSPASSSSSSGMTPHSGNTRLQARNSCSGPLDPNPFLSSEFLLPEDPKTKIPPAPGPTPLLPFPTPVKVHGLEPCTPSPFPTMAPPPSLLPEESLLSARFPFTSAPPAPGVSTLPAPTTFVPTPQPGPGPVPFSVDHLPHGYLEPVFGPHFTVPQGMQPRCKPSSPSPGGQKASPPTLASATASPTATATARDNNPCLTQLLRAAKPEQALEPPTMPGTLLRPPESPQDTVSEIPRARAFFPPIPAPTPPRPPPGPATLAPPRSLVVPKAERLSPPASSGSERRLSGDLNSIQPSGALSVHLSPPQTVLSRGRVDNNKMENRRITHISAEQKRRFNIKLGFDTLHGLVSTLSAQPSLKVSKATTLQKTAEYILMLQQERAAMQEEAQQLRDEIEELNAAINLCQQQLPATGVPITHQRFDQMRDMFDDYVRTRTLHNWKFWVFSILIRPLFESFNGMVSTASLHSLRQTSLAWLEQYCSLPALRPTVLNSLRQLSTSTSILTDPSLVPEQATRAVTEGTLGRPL
UniProt Q9CQ86: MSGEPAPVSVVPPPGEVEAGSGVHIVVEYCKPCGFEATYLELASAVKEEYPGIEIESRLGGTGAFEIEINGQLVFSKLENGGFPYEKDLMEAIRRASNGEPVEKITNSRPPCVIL
UniProt Q99PL6: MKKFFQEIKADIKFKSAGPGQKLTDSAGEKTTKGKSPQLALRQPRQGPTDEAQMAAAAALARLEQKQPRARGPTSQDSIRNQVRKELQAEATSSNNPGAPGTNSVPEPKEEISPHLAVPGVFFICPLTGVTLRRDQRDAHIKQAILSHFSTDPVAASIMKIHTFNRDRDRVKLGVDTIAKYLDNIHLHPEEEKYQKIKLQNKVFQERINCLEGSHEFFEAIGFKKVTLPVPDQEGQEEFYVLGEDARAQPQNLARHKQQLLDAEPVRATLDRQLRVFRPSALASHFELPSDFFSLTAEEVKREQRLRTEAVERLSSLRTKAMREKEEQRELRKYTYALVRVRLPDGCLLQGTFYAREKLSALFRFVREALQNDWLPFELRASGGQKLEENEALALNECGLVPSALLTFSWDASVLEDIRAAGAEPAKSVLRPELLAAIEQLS
UniProt Q99MS3: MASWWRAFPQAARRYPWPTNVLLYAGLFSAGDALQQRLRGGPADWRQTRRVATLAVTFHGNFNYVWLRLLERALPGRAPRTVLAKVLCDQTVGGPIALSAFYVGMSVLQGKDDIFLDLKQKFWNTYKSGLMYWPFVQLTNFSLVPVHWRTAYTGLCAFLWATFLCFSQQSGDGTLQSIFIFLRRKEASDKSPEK
UniProt Q9CQC8: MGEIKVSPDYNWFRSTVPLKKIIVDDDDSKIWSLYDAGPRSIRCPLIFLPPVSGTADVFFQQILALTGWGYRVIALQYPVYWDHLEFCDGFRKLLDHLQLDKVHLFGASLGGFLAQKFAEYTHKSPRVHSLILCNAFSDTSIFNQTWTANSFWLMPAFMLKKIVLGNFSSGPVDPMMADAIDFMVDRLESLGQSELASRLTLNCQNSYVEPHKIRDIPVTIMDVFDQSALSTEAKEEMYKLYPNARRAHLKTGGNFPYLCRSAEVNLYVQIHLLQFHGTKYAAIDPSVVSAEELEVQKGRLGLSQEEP

These targets were tested with CN[C@@H]1C[C@H]2O[C@@](C)([C@@H]1OC)n1c3ccccc3c3c4c(c5c6ccccc6n2c5c31)C(=O)NC4 [staurosporine] (assay: log2 fold change of tryptic peptide abundance, ligand vs vehicle (limited proteolysis) (log2 ratio); higher = more trypsin-susceptible (destabilized)). Details: ligand concentration: 20 uM; sample: mouse liver crude lysate; replicate design: treated separately.

Target	log2 fold change
UniProt Q99MD9 (peptide sequence: EAQLYAAQAHLK, peptide start residue: 522)	0.165
UniProt Q9CQS5 (peptide sequence: ENMQNIK, peptide start residue: 530)	-0.369
UniProt Q99N32 (peptide sequence: LISSSGLPAENR, peptide start residue: 959)	0.448
UniProt Q99N96 (peptide sequence: EKTSDEKPVDDIEK, peptide start residue: 63)	0.144
UniProt Q9CQ04 (peptide sequence: DYGQLLR, peptide start residue: 40)	-0.117
UniProt Q9BCZ4 (peptide sequence: LRMQEDLNAQVEK, peptide start residue: 87)	-0.594
UniProt Q9CR10 (peptide sequence: ALAILEEHVTDENLK, peptide start residue: 172)	0.171
UniProt Q9CQJ8 (peptide sequence: YFACLMR, peptide start residue: 39)	-0.15
UniProt Q9CQC9 (peptide sequence: IDRPEAISEER, peptide start residue: 136)	-0.135
UniProt Q99P65 (peptide sequence: APSNHQEADQEALLGK, peptide start residue: 19)	-0.785
UniProt Q99LT0 (peptide sequence: AQFEDRN, peptide start residue: 93)	-0.0825
UniProt Q99NF3 (peptide sequence: HIGNPEYLTR, peptide start residue: 6)	0.433
UniProt Q9CQ43 (peptide sequence: HFIDVGAGVIDEDYR, peptide start residue: 90)	-0.189
UniProt Q99P31 (peptide sequence: SAFLLQNLLVGHPEHK, peptide start residue: 248)	0.35
UniProt Q9CQM9 (peptide sequence: LDGAHAPELTK, peptide start residue: 102)	-0.22
UniProt Q99LL5 (peptide sequence: GLSVSGPCGSR, peptide start residue: 482)	-0.175

Random excerpt: 2 entries already listed.
Target	log2 fold change
UniProt Q99P31 (peptide sequence: SAFLLQNLLVGHPEHK, peptide start residue: 248)	0.35
UniProt Q99N96 (peptide sequence: EKTSDEKPVDDIEK, peptide start residue: 63)	0.144

More entries

Target	log2 fold change
UniProt Q9CQX2 (peptide sequence: NSAEETWMVIHGR, peptide start residue: 32)	0.133
UniProt Q9CR39 (peptide sequence: QSSLASASFLPK, peptide start residue: 267)	-0.0457
UniProt Q9CR16 (peptide sequence: EYDQALADLKK, peptide start residue: 322)	0.174
UniProt Q99MZ3 (peptide sequence: ITHISAEQK, peptide start residue: 664)	-0.16
UniProt Q9CQ86 (peptide sequence: RASNGEPVEK, peptide start residue: 95)	-1.42
UniProt Q99PP2 (peptide sequence: IRPNLPIPSTVLRK, peptide start residue: 1373)	0.521
UniProt Q9CR24 (peptide sequence: EHVWGVLQPVYDREK, peptide start residue: 97)	0.169
UniProt Q99PL6 (peptide sequence: GPTSQDSIR, peptide start residue: 72)	-0.211
UniProt Q9CQM5 (peptide sequence: LKITAVPTLLK, peptide start residue: 88)	0.469
UniProt Q9CR47 (peptide sequence: WEVPLPK, peptide start residue: 117)	-0.447
UniProt Q99MS3 (peptide sequence: EASDKSPEK, peptide start residue: 186)	0.00737
UniProt Q9CPY0 (peptide sequence: KESSEVYLLATQYR, peptide start residue: 225)	-0.339
UniProt Q9CQL4 (peptide sequence: LTDRYWR, peptide start residue: 14)	0.406
UniProt Q9CQC8 (peptide sequence: LYPNARRAHLK, peptide start residue: 241)	0.287
UniProt Q9CQF0 (peptide sequence: IFIKPDRTFELK, peptide start residue: 70)	0.369
